Consider 35 targets from the supplement of paper PMC10849652.

Amino acid sequences for entries named in this document (tags omitted). A change or cut given only in a name is not applied to a line headed by its entry.
UniProt Q9BQ52: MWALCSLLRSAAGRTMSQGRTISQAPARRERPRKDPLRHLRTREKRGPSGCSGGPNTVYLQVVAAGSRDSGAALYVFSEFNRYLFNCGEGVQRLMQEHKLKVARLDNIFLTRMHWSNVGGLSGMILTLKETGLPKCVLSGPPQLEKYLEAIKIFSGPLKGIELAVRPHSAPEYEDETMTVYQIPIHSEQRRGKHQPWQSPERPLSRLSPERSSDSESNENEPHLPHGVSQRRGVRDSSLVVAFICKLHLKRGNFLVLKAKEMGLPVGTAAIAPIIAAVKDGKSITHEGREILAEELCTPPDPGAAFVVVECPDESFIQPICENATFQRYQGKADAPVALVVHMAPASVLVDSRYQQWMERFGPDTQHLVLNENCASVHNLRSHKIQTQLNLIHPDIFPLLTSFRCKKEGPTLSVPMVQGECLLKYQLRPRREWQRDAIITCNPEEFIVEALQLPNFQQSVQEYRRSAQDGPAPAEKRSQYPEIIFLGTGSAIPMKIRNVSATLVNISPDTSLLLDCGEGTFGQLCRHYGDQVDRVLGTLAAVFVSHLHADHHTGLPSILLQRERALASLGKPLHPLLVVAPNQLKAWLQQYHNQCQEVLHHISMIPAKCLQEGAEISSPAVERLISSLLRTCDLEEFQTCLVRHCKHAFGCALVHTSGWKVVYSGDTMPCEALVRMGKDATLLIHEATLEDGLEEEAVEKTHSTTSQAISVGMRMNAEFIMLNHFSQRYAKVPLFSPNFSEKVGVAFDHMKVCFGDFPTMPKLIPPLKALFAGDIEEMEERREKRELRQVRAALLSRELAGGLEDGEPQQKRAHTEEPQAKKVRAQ
UniProt O00303, whole entry, looked up: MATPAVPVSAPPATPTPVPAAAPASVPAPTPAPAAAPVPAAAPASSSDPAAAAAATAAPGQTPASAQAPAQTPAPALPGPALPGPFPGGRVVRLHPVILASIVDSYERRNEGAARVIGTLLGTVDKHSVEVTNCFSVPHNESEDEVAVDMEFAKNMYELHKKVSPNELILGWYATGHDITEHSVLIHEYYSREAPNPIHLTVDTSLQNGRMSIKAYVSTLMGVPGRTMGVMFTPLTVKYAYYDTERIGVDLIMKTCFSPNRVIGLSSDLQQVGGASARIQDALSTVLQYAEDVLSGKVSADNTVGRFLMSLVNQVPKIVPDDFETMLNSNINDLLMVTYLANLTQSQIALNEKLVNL
UniProt P41214: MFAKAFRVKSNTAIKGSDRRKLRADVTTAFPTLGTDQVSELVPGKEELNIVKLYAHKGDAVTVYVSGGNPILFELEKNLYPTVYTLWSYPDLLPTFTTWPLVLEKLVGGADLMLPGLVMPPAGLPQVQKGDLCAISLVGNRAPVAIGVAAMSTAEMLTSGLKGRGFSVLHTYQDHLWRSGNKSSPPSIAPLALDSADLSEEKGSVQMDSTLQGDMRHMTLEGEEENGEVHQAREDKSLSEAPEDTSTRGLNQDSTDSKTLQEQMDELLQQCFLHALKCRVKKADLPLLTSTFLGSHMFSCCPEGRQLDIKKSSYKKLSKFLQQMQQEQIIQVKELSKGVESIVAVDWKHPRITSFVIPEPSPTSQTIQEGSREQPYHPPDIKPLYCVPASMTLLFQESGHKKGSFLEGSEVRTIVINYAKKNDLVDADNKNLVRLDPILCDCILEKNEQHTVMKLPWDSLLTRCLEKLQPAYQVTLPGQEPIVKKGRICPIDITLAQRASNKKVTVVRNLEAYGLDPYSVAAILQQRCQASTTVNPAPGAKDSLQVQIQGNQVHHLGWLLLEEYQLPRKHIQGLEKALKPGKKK
UniProt O15371, whole entry, looked up: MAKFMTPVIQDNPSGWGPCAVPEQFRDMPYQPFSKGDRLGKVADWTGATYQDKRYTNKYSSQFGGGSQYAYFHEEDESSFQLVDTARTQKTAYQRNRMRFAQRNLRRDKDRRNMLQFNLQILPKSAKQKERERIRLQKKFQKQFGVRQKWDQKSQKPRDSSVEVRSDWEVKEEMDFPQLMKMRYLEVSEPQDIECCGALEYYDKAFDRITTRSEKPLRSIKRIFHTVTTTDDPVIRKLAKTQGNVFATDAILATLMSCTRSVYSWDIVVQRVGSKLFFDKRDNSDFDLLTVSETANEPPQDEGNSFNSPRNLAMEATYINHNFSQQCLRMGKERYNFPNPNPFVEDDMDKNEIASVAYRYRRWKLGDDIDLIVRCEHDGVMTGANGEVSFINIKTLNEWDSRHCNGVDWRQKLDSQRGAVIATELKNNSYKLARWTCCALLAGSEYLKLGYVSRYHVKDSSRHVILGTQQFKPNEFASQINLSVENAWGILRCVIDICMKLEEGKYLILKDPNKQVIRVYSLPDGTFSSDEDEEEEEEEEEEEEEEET
UniProt Q8NFI3: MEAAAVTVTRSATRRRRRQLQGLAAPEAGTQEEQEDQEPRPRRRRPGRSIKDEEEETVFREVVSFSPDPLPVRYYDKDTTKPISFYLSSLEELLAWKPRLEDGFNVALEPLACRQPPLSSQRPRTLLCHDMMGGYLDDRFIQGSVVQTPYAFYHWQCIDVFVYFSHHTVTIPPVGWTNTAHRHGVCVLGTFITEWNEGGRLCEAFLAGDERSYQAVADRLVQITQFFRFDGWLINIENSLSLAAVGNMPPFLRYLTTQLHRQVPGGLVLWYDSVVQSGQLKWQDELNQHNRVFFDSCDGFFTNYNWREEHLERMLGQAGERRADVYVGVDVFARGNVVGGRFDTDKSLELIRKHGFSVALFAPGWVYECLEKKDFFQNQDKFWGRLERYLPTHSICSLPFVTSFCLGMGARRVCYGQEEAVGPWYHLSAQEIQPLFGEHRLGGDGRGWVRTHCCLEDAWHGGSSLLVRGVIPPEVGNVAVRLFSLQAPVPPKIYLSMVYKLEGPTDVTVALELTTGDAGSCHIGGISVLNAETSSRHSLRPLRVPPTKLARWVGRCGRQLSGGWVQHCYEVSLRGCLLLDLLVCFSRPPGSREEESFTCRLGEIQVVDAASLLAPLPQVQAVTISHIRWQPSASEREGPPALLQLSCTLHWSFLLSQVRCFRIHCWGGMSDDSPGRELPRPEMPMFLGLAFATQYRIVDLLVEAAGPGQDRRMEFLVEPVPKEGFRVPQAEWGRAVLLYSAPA
UniProt Q32P44: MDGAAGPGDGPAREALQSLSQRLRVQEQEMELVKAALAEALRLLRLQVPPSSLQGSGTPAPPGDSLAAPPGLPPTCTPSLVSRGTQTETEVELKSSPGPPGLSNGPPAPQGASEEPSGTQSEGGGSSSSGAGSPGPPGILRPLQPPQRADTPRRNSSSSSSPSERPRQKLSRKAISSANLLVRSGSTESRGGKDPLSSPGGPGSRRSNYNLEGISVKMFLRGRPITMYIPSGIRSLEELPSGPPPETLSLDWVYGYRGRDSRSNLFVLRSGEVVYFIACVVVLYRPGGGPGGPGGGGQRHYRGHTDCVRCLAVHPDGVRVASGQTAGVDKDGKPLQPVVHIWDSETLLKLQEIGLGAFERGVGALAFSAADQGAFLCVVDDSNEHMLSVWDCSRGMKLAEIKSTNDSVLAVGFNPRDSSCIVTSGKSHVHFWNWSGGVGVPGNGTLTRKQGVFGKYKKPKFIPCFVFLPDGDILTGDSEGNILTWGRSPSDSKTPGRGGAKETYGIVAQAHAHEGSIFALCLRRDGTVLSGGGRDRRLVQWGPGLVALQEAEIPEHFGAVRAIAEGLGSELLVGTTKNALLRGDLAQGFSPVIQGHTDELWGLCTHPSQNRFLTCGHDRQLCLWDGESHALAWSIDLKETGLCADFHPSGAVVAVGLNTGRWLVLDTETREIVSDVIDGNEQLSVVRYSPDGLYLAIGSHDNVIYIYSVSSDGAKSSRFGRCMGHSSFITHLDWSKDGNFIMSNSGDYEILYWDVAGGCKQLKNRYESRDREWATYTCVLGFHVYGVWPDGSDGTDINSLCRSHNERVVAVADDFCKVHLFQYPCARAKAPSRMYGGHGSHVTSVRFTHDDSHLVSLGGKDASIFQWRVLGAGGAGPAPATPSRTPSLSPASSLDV
UniProt Q9P0I2: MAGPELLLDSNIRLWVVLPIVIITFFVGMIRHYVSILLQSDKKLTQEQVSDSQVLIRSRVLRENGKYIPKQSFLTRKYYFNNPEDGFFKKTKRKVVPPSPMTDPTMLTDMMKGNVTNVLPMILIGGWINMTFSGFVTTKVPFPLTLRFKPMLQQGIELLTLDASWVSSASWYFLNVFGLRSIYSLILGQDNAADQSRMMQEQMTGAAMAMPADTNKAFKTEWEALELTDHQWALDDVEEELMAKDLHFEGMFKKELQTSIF
UniProt P54852: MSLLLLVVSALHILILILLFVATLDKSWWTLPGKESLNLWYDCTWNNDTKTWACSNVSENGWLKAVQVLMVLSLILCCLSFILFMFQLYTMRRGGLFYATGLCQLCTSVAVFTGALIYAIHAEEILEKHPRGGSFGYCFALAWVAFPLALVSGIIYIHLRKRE
UniProt Q9Y2J2, whole entry, looked up: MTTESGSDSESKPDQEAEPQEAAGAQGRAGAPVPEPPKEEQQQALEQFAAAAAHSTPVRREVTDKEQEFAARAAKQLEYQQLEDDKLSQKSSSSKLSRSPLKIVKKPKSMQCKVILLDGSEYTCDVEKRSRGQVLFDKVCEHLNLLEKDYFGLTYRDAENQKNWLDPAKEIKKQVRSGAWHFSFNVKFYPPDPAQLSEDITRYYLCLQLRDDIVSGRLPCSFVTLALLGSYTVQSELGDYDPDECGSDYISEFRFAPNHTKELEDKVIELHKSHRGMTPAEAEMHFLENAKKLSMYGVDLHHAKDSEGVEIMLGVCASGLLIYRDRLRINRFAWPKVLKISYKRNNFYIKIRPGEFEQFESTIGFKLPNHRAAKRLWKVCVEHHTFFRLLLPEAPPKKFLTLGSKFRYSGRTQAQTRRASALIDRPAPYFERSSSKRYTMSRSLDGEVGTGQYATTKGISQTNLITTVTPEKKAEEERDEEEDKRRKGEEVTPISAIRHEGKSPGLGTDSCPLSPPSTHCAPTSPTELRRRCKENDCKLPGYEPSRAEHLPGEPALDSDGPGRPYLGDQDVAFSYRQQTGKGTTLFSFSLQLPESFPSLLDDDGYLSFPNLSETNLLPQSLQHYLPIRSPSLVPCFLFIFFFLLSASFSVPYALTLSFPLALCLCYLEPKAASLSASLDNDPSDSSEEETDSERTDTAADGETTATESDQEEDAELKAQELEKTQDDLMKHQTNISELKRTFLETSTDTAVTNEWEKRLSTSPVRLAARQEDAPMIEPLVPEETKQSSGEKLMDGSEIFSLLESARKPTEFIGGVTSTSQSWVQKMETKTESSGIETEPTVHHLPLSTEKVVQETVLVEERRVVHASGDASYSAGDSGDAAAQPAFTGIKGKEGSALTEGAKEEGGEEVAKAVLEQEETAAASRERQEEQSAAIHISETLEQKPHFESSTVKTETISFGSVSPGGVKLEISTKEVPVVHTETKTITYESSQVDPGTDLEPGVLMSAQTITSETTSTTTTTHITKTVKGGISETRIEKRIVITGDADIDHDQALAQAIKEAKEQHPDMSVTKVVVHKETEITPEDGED
UniProt Q13542: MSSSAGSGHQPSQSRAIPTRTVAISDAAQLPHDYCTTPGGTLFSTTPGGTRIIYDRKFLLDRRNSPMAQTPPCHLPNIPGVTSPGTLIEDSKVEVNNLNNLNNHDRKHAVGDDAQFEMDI
UniProt P38919, whole entry, looked up: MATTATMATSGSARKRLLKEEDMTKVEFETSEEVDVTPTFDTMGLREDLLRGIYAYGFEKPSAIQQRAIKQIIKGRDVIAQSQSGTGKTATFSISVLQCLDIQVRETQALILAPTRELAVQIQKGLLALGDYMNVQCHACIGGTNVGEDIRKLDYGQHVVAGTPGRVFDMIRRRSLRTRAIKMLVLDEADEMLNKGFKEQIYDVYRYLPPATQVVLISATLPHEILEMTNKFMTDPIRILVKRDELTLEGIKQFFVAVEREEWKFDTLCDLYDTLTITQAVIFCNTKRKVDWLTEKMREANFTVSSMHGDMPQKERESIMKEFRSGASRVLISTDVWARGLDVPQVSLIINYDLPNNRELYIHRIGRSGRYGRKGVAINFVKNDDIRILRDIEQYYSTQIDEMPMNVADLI
UniProt P34913, whole entry, looked up: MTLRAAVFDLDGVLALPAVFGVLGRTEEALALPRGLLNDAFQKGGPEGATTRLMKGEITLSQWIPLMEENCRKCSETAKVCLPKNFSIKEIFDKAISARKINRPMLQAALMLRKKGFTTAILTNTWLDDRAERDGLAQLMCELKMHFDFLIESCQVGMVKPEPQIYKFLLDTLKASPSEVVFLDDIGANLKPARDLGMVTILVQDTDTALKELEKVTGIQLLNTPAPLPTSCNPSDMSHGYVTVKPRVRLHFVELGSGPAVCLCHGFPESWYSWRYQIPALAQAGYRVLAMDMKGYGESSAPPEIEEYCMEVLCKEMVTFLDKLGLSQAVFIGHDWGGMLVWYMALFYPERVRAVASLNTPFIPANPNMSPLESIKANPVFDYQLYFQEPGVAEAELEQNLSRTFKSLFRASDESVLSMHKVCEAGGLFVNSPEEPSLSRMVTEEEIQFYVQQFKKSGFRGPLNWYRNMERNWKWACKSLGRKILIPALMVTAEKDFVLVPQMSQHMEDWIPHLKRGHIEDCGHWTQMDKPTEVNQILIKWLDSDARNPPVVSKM

The list shows a part of the results.

Compound in this experiment: COC(=O)N[C@@H](C)CNc1nccc(-c2cn(C(C)C)nc2-c2cc(Cl)cc(NS(C)(=O)=O)c2F)n1 [encorafenib]
Description: log2 fold change, soluble protein after heating vs DMSO (PISA); higher = thermal stabilisation; K562 lysate, 10 uM; active = over 0.2 and 3.5 SD of the protein, either way, in both replicates (recomputed). In a few lines:
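K562 pellets were dounce-homogenised in PBS pH 7.4 with 1 mM MgCl2, and the crude extract at 1 mg/mL protein was treated with 10 μM compound for 30 min. Aliquots were heated for 3 min across 48°C-58°C, pooled, and brought to 0.5% NP-40 at 4°C; soluble protein was the supernatant after 21,000xg for 90 min. Soluble protein was quantified by TMTpro 16plex LC-MS/MS with channel sums equalised, and reported as log2 fold change in thermal stability against DMSO controls, with values from duplicates.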
For the target EPB41L1 (UniProt Q9H4G0), the log2 fold change was inactive: -0.092. The result for ELAC2 (UniProt Q9BQ52) reads inactive: -0.004. The figure for EIF4B (UniProt P23588) is inactive: 0.007. The result for EIF3F (UniProt O00303) reads inactive: 0.017. Consider EIF2D (UniProt P41214), for which the log2 fold change was inactive: -0.014. The figure for EMC2 (UniProt Q15006) is inactive: -0.012. The result for EP300 (UniProt Q09472) reads inactive: 0.031; that for EIF5B (UniProt O60841), inactive: -0.016. The figure for ERCC2 (UniProt P18074) is inactive: 0.04; for EMC10 (UniProt Q5UCC4) it is inactive: -0.033; for EML2 isoform 3 (UniProt O95834) it is inactive: 0.013.

Regarding EMC8 (UniProt O43402), the log2 fold change was inactive: 0.013.

Regarding EIF3D (UniProt O15371), the log2 fold change was inactive: 0.012. The result for ENGASE (UniProt Q8NFI3) reads inactive: 0.018; that for EPS15L1 isoform 2 (UniProt Q9UBC2), inactive: -0.006; that for EP400P1 isoform 6 (UniProt Q6ZTU2), inactive: -0.032. Take ENTPD5 (UniProt O75356): the log2 fold change is inactive: 0.155. The figure for ELP6 (UniProt Q0PNE2) is inactive: 0.005.

On to EIF2B5 (UniProt Q13144), for which the log2 fold change was inactive: -0.009.

In the case of EIF3G (UniProt O75821), the log2 fold change is inactive: -0.013. The result for ELOC (UniProt Q15369) reads inactive: -0.019; that for EML3 (UniProt Q32P44), inactive: 0.025. The figure for ELOA (UniProt Q14241) is inactive: 0.022; for EIF2AK4 (UniProt Q9P2K8) it is inactive: -0.021; for EMC3 (UniProt Q9P0I2) it is inactive: 0.018. The figure for EMP3 (UniProt P54852) is inactive: -0.016; for EMC4 (UniProt Q5J8M3) it is inactive: 0.054; for EPB41L3 (UniProt Q9Y2J2) it is inactive: -0.003. Regarding EIF4EBP2 (UniProt Q13542), the log2 fold change is inactive: 0.007. Regarding ERCC6L (UniProt Q2NKX8), the log2 fold change is inactive: 0.044.

As for EIF4E isoform 2 (UniProt P06730), the log2 fold change was inactive: -0.005. The figure for EMC6 (UniProt Q9BV81) is inactive: 0.039; for EIF4A3 (UniProt P38919) it is inactive: -0.019. The figure for EIF3E (UniProt P60228) is inactive: -0.036. The result for EPHX2 (UniProt P34913) reads inactive: -0.02.
